# Results: the supplement of paper PMC8728848
# This is one part of the list.
# B1: DC-Sign-R (Homo sapiens), Q9H2X3 (protein)
# chain: MSDSKEPRVQQLGLLEEDPTTSGIRLFPRDFQFQQIHGHKSSTGCLGHGALVLQLLSFMLLAGVLVAILVQVSKVPSSLSQEQSEQDAIYQNLTQLKAAVGELSEKSKLQEIYQELTQLKAAVGELPEKSKLQEIYQELTRLKAAVGELPEKSKLQEIYQELTRLKAAVGELPEKSKLQEIYQELTRLKAAVGELPEKSKLQEIYQELTELKAAVGELPEKSKLQEIYQELTQLKAAVGELPDQSKQQQIYQELTDLKTAFERLCRHCPKDWTFFQGNCYFMSNSQRNWHDSVTACQEVRAQLVVIKTAEEQNFLQLQTSRSNRFSWMGLSDLNQEGTWQWVDGSPLSPSFQRYWNSGEPNNSGNEDCAEFSGSGWNDNRCDVDNYWICKKPAACFRDE
# How the values were obtained:
# Assay in all cases: glycan array binding signal (z-score within array); higher = stronger binding
# Conditions in all cases: glycan notation: IUPAC condensed, linker removed
# [1] = target: Fuc(a1-2)[Gal(a1-3)]Gal(b1-4)GlcNAc(b1-2)Man(a1-3)[Fuc(a1-2)[Gal(a1-3)]Gal(b1-4)GlcNAc(b1-2)Man(a1-6)]Man(b1-4)GlcNAc(b1-4)GlcNAc
# Summary of the method: (§1)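 The binding signal is a Z-score computed within each array. Data were drawn from 3228 arrays in the Consortium for Functional Glycomics database, restricted to those with a known protein sequence. Scores were averaged over arrays of the same protein sequence at different concentrations or buffers, and over linkers, and negative values can be taken as non-binding.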
# [2] = target: Fuc(a1-2)[Gal(a1-3)]Gal(b1-4)GlcNAc(b1-2)Man(a1-3)[Fuc(a1-2)[Gal(a1-3)]Gal(b1-4)GlcNAc(b1-2)Man(a1-6)]Man(b1-4)GlcNAc(b1-4)[Fuc(a1-6)]GlcNAc
# Summary of the method: as §1
# [3] = target: Fuc(a1-2)[Gal(a1-3)]Gal(b1-4)GlcNAc(b1-3)GalNAc
# Summary of the method: as §1
# [4] = target: Fuc(a1-2)[Gal(a1-3)]Gal(b1-4)GlcNAc(b1-3)[Fuc(a1-2)[Gal(a1-3)]Gal(b1-4)GlcNAc(b1-6)]GalNAc
# Summary of the method: as §1
# [5] = target: Fuc(a1-2)[Gal(a1-3)]Gal(b1-4)GlcNAc(b1-6)GalNAc
# Summary of the method: as §1
# [6] = target: Fuc(a1-2)[Gal(a1-3)]Gal(b1-4)[Fuc(a1-3)]Glc
# Summary of the method: as §1
# [7] = target: Fuc(a1-2)[Gal(a1-3)]Gal(b1-4)[Fuc(a1-3)]GlcNAc
# Summary of the method: as §1
# [8] = target: Fuc(a1-2)[Gal(a1-3)]Gal(b1-4)[Fuc(a1-3)]GlcNAc(b1-3)GalNAc
# Summary of the method: as §1
# [9] = target: Fuc(a1-2)[Gal(a1-4)]Gal(b1-4)GlcNAc
# Summary of the method: as §1
# [10] = target: Fuc(a1-2)[GalNAc(a1-3)]Gal
# Summary of the method: as §1
# [11] = target: Fuc(a1-2)[GalNAc(a1-3)]Gal(b1-3)GalNAc(a1-3)[Fuc(a1-2)]Gal(b1-4)GlcNAc
# Summary of the method: as §1
# [12] = target: Fuc(a1-2)[GalNAc(a1-3)]Gal(b1-3)GalNAc(b1-3)Gal(a1-4)Gal(b1-4)Glc
# Summary of the method: as §1
# [13] = target: Fuc(a1-2)[GalNAc(a1-3)]Gal(b1-3)GlcNAc
# Summary of the method: as §1
# [14] = target: Fuc(a1-2)[GalNAc(a1-3)]Gal(b1-3)GlcNAc(b1-2)Man(a1-3)[Fuc(a1-2)[GalNAc(a1-3)]Gal(b1-3)GlcNAc(b1-2)Man(a1-6)]Man(b1-4)GlcNAc(b1-4)GlcNAc
# Summary of the method: as §1
# [15] = target: Fuc(a1-2)[GalNAc(a1-3)]Gal(b1-3)GlcNAc(b1-2)Man(a1-3)[Fuc(a1-2)[GalNAc(a1-3)]Gal(b1-3)GlcNAc(b1-2)Man(a1-6)]Man(b1-4)GlcNAc(b1-4)[Fuc(a1-6)]GlcNAc
# Summary of the method: as §1
# [16] = target: Fuc(a1-2)[GalNAc(a1-3)]Gal(b1-3)GlcNAc(b1-3)GalNAc
# Summary of the method: as §1
# [17] = target: Fuc(a1-2)[GalNAc(a1-3)]Gal(b1-3)GlcNAc(b1-6)GalNAc
# Summary of the method: as §1
# [18] = target: Fuc(a1-2)[GalNAc(a1-3)]Gal(b1-4)Glc
# Summary of the method: as §1
# [19] = target: Fuc(a1-2)[GalNAc(a1-3)]Gal(b1-4)GlcNAc
# Summary of the method: as §1
# [20] = target: Fuc(a1-2)[GalNAc(a1-3)]Gal(b1-4)GlcNAc(b1-2)Man
# Summary of the method: as §1
# [21] = target: Fuc(a1-2)[GalNAc(a1-3)]Gal(b1-4)GlcNAc(b1-2)Man(a1-3)[Fuc(a1-2)[GalNAc(a1-3)]Gal(b1-4)GlcNAc(b1-2)Man(a1-6)]Man(b1-4)GlcNAc(b1-4)GlcNAc
# Summary of the method: as §1
# [22] = target: Fuc(a1-2)[GalNAc(a1-3)]Gal(b1-4)GlcNAc(b1-2)Man(a1-3)[Fuc(a1-2)[GalNAc(a1-3)]Gal(b1-4)GlcNAc(b1-2)Man(a1-6)]Man(b1-4)GlcNAc(b1-4)[Fuc(a1-6)]GlcNAc
# Summary of the method: as §1
# [23] = target: Fuc(a1-2)[GalNAc(a1-3)]Gal(b1-4)GlcNAc(b1-3)Gal(b1-4)GlcNAc
# Summary of the method: as §1
# [24] = target: Fuc(a1-2)[GalNAc(a1-3)]Gal(b1-4)GlcNAc(b1-3)Gal(b1-4)GlcNAc(b1-3)Gal(b1-4)GlcNAc
# Summary of the method: as §1
# [25] = target: Fuc(a1-2)[GalNAc(a1-3)]Gal(b1-4)GlcNAc(b1-3)GalNAc
# Summary of the method: as §1
# [26] = target: Fuc(a1-2)[GalNAc(a1-3)]Gal(b1-4)GlcNAc(b1-3)[Fuc(a1-2)[GalNAc(a1-3)]Gal(b1-4)GlcNAc(b1-6)]GalNAc
# Summary of the method: as §1
# [27] = target: Fuc(a1-2)[GalNAc(a1-3)]Gal(b1-4)GlcNAc(b1-6)GalNAc
# Summary of the method: as §1
# [28] = target: Fuc(a1-2)[GalNAc(a1-3)]Gal(b1-4)[Fuc(a1-3)]GlcNAc
# Summary of the method: as §1
# [29] = target: Fuc(a1-2)[GalNAc(a1-3)]Gal(b1-4)[Fuc(a1-3)]GlcNAc(b1-3)GalNAc
# Summary of the method: as §1
# [30] = target: Fuc(a1-2)[GalNAc(a1-4)]Gal(b1-4)GlcNAc
# Summary of the method: as §1
# [31] = target: Fuc(a1-2)[GalNAc(b1-3)]Gal
# Summary of the method: as §1
# [32] = target: Fuc(a1-3)GlcNAc
# Summary of the method: as §1
# [33] = target: Fuc(a1-3)[Gal(b1-4)]Glc6S
# Summary of the method: as §1
# [34] = target: Fuc(a1-3)[Gal(b1-4)]GlcNAc
# Summary of the method: as §1
# [35] = target: Fuc(a1-3)[Gal(b1-4)]GlcNAc(b1-2)Man
# Summary of the method: as §1
# [36] = target: Fuc(a1-3)[Gal(b1-4)]GlcNAc(b1-2)Man(a1-3)[Fuc(a1-3)[Gal(b1-4)]GlcNAc(b1-2)Man(a1-6)]Man(b1-4)GlcNAc(b1-4)GlcNAc
# Summary of the method: as §1
# [37] = target: Fuc(a1-3)[Gal(b1-4)]GlcNAc(b1-2)Man(a1-3)[Fuc(a1-3)[Gal(b1-4)]GlcNAc(b1-2)Man(a1-6)]Man(b1-4)GlcNAc(b1-4)[Fuc(a1-6)]GlcNAc
# Summary of the method: as §1
# [38] = target: Fuc(a1-3)[Gal(b1-4)]GlcNAc(b1-3)Gal(b1-3)[Fuc(a1-4)]GlcNAc
# Summary of the method: as §1
# [39] = target: Fuc(a1-3)[Gal(b1-4)]GlcNAc(b1-3)Gal(b1-4)[Fuc(a1-3)]GlcNAc
# Summary of the method: as §1
# [40] = target: Fuc(a1-3)[Gal(b1-4)]GlcNAc(b1-3)Gal(b1-4)[Fuc(a1-3)]GlcNAc(b1-3)Gal(b1-4)[Fuc(a1-3)]GlcNAc
# Summary of the method: as §1
# [41] = target: Fuc(a1-3)[Gal(b1-4)]GlcNAc(b1-3)GalNAc
# Summary of the method: as §1
# [42] = target: Fuc(a1-3)[Gal(b1-4)]GlcNAc(b1-6)GalNAc
# Summary of the method: as §1
# [43] = target: Fuc(a1-3)[Gal(b1-4)]GlcNAc(b1-6)[Gal(b1-3)GlcNAc(b1-3)]Gal(b1-4)Glc
# Summary of the method: as §1
# [44] = target: Fuc(a1-3)[Gal(b1-4)]GlcNAc6S
# Summary of the method: as §1
# [45] = target: Fuc(a1-3)[Gal3S(b1-4)]Glc
# Summary of the method: as §1
binder,measurement,setting,value
B1,glycan array binding signal (z-score),[1],-0.786
same,glycan array binding signal (z-score),[2],-0.844
same,glycan array binding signal (z-score),[3],0.16
same,glycan array binding signal (z-score),[4],-0.4
same,glycan array binding signal (z-score),[5],-0.338
same,glycan array binding signal (z-score),[6],-0.545
same,glycan array binding signal (z-score),[7],0.112
same,glycan array binding signal (z-score),[8],-0.628
same,glycan array binding signal (z-score),[9],-0.105
same,glycan array binding signal (z-score),[10],0.758
same,glycan array binding signal (z-score),[11],-0.817
same,glycan array binding signal (z-score),[12],0.392
same,glycan array binding signal (z-score),[13],-0.339
same,glycan array binding signal (z-score),[14],-0.748
same,glycan array binding signal (z-score),[15],-0.011
same,glycan array binding signal (z-score),[16],0.384
same,glycan array binding signal (z-score),[17],-0.277
same,glycan array binding signal (z-score),[18],2.29
same,glycan array binding signal (z-score),[19],1.53
same,glycan array binding signal (z-score),[20],0.296
same,glycan array binding signal (z-score),[21],-0.72
same,glycan array binding signal (z-score),[22],-0.671
same,glycan array binding signal (z-score),[23],0.606
same,glycan array binding signal (z-score),[24],0.606
same,glycan array binding signal (z-score),[25],-0.257
same,glycan array binding signal (z-score),[26],-0.812
same,glycan array binding signal (z-score),[27],0.433
same,glycan array binding signal (z-score),[28],0.544
same,glycan array binding signal (z-score),[29],0.721
same,glycan array binding signal (z-score),[30],0.012
same,glycan array binding signal (z-score),[31],-0.639
same,glycan array binding signal (z-score),[32],0.271
same,glycan array binding signal (z-score),[33],0.425
same,glycan array binding signal (z-score),[34],-0.379
same,glycan array binding signal (z-score),[35],1.67
same,glycan array binding signal (z-score),[36],0.284
same,glycan array binding signal (z-score),[37],-0.812
same,glycan array binding signal (z-score),[38],0.843
same,glycan array binding signal (z-score),[39],-0.092
same,glycan array binding signal (z-score),[40],-0.384
same,glycan array binding signal (z-score),[41],2.27
same,glycan array binding signal (z-score),[42],1.07
same,glycan array binding signal (z-score),[43],-0.804
same,glycan array binding signal (z-score),[44],1.05
same,glycan array binding signal (z-score),[45],0.062

# In another format: entries from further up
binder	measurement	setting	value
B1	glycan array binding signal (z-score)	[5]	-0.338
same	glycan array binding signal (z-score)	[24]	0.606
same	glycan array binding signal (z-score)	[31]	-0.639
same	glycan array binding signal (z-score)	[35]	1.67
